Some of the results follow. These are further read-outs of the screen, such as a control signal, another cell line or another target. No call is given for them. Most of these compounds were active or inconclusive in the main read-out, so they are no random draw. Words in brackets tell the shape of the fitted curve; partial curves, single points and poor fits give uncertain potencies.
Assay: qHTS Assay to Find Inhibitors of Chronic Active B-Cell Receptor Signaling
Conditions: ABC-DLBCL IkBa-CBG/CBR reporter, luminescence ratio (green luciferase fused to IkBa over red control in TMD8 lymphoma cells), 4 h
Method in brief: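 Doxycycline induced both beetle luciferases in TMD8 lymphoma cells; IKK-driven degradation limits the IkappaBalpha-fused green signal, while red luminescence normalises for cell number and nonspecific effects. Compounds tested up to 46 uM, 4 hrs.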

[1] = measured here: CBR red luminescence, cell number
[2] = measured here: IkBa-CBG green luminescence

| SMILES | AC50 [1] | AC50 [2] |
| --- | --- | --- |
| O=[N+]([O-])c1ccc(CSc2nnc(-c3cccnc3)o2)cc1 | 25.1 µM [rising, single point] | – |
| Nc1nc(C23CC4CC(CC(C4)C2)C3)[nH]c(=O)n1 | 3.98 µM [rising, full curve, poor fit] | – |
| Cc1ccc(Cn2c(CO)cnc2SCC(=O)Nc2cccc(F)c2)cc1 | 5.01 µM [rising, full curve, poor fit] | – |
| Cc1ccc(NC(=O)CCn2c(=S)oc3ccccc32)cc1F | 35.5 µM [rising, single point] | – |
| COc1ccc(-c2nn(C)c(=O)c3ccccc23)cc1NC(=O)Cn1nc(C)c2ccccc2c1=O | 29.1 µM [falling, single point] | – |
| COc1ccc(Nc2cc(C(=O)NCc3ccco3)c3ccccc3n2)c(OC)c1 | 5.8 µM [falling, partial curve] | 3.26 µM [rising, partial curve, poor fit] |
| C=CCC[C@@H](Cc1ccc(F)cc1)C(=O)OC[C@@H](NC(=O)[C@H](CC=C)CC(=O)N(CCO)Cc1ccccc1)c1ccccc1 | 4.61 µM [falling, partial curve] | 5.8 µM [rising, partial curve, poor fit] |
| CCOCc1nc(C)c(Cl)c(NS(=O)(=O)c2ccc(N)cc2)n1 | 0.0058 µM [rising, full curve, poor fit] | – |
| Cc1cc(OCC(=O)NC2CC(C)(C)NC(C)(C)C2)c(C)cc1Br | 11.2 µM [falling, single point] | – |
| COC(=O)c1cc(C)sc1NC(=O)CC1Nc2ccccc2NC1=O (stereo unspecified) | 35.5 µM [falling, single point] | – |
| Cc1ccc(/C=N/NC(=S)Nc2cccc(S(=O)(=O)N(C)C)c2)o1 | 35.5 µM [falling, single point] | – |
| COc1ccc(C(CNC(=O)c2ccccc2SC)N(C)C)cc1 (stereo unspecified) | 11.2 µM [falling, partial curve] | – |
| N#CC1=C(N)N2C(=C(C#N)C1c1ccc(Br)cc1)Nc1ccccc12 (stereo unspecified) | 2.31 µM [falling, partial curve, poor fit] | – |
| COc1ccc(CN=C(Nc2ccccc2)SC2CC(=O)NC2=O)cc1 (stereo unspecified) | 35.5 µM [falling, single point] | – |
| C=CCSC1=C(C#N)C(c2ccc(OCC)cc2)CC(=O)N1 (stereo unspecified) | 0.0082 µM [rising, full curve, poor fit] | – |
| Cc1ccc(-c2nn(-c3ccccc3)cc2CSC(=N)N)cc1 | 14.1 µM [falling, partial curve, poor fit] | – |
| CC(C)c1ccc(C2NC(=O)NC3=C2CCc2ccccc23)cc1 (stereo unspecified) | 16.4 µM [rising, partial curve, poor fit] | – |
| O=C1NC[C@@H](Cc2cccc3ccccc23)N(CCc2cc(C(F)(F)F)cc(C(F)(F)F)c2)C1=O | 22.4 µM [falling, single point] | – |
| N#Cc1cc(-c2ccccc2)nc(NN)n1 | 35.5 µM [falling, single point] | – |
| COc1ccc(CN(C)C(=O)c2ccccc2OCc2c(C)noc2C)cc1OC | 13 µM [rising, partial curve, poor fit] | – |

Fetched one by one from the entries so far:

| SMILES | AC50 [1] | AC50 [2] |
| --- | --- | --- |
| COc1ccc(-c2nn(C)c(=O)c3ccccc23)cc1NC(=O)Cn1nc(C)c2ccccc2c1=O | 29.1 µM [falling, single point] | – |
| Nc1nc(C23CC4CC(CC(C4)C2)C3)[nH]c(=O)n1 | 3.98 µM [rising, full curve, poor fit] | – |

Next part

| SMILES | AC50 [1] | AC50 [2] |
| --- | --- | --- |
| COc1cccc(C(=O)Nc2nc(C)cs2)c1 | 11.2 µM [falling, partial curve, poor fit] | – |
| COCCNC(=O)c1ccc2c(=O)n(Cc3ccco3)c(SCC(=O)NC3CCCCC3)nc2c1 | 35.5 µM [rising, single point] | – |
| O=C(O)c1ccc(NC(CSCc2cccc(F)c2)C(=O)O)c([N+](=O)[O-])c1 (stereo unspecified) | 4.61 µM [falling, full curve] | – |
| Cc1ccc(C(C)C)c(OCCCN2CC(C)OC(C)C2)c1 (stereo unspecified) | 7.31 µM [rising, partial curve, poor fit] | – |
| Cc1cc(Nc2ccccc2)c2c([N+](=O)[O-])cc(C)c(C)c2n1 | 14.6 µM [rising, single point] | – |
| CCC1(c2ccccc2)NC(=O)N(CC(=O)Nc2cc(S(=O)(=O)N3CCCCCC3)ccc2OC)C1=O (stereo unspecified) | 0.164 µM [rising, full curve] | – |
| Cc1ccc(C2(C)NC(=O)N(CC(=O)Nc3c(C)n(C)n(-c4ccccc4)c3=O)C2=O)cc1 (stereo unspecified) | 29.1 µM [rising, single point] | – |
| CN(C(=O)CSCC(=O)Nc1ccc(Cl)cc1)C1CCCCC1 | 29.1 µM [falling, single point] | – |
| CC(C)(C)Nc1nc(N2CCCC2)nc(N2CCCC2)n1 | 1.26 µM [rising, full curve] | – |
| O=C(Oc1cccc(NC(=O)c2ccco2)c1)c1cccc(S(=O)(=O)N2CCCCC2)c1 | 13 µM [falling, partial curve, poor fit] | – |
| O=C(c1ccccc1-c1nc(-c2ccc(Cl)cc2)no1)N1CCCC1 | 3.98 µM [rising, full curve, poor fit] | – |
| COc1ccc(C(=O)C2CCCN(Cc3cc(Cl)ccc3O)C2)c(OC)c1 (stereo unspecified) | 35.5 µM [falling, partial curve, poor fit] | – |
| Cc1ccc(NC(=O)C2COc3ccccc3O2)cc1C (stereo unspecified) | 0.398 µM [rising, full curve] | – |
| O=C(COC(=O)c1ccc(NS(=O)(=O)c2cccs2)cc1O)NCc1ccccc1 | – | 22.4 µM [falling, single point] |
| CCCOc1ccc(C(=O)C(CCC(CNCC)C(=O)c2ccc(OCCC)cc2)CNCC)cc1 (stereo unspecified) | 6.51 µM [falling, full curve] | – |
| Cn1c(C(=O)N[C@@H](Cc2ccccc2)C(=O)O)cc2cc(Cl)ccc21 | 8.91 µM [falling, partial curve, poor fit] | – |
| CCOC(=O)c1cc(C)sc1N1C(=O)C2C3C=CC(C3)C2C1=O (stereo unspecified) | 16.4 µM [falling, single point] | – |
| CCS(=O)(=O)Nc1cccc(C2=NN(S(=O)(=O)c3ccc(F)cc3)C(c3cccs3)C2)c1 (stereo unspecified) | 18.4 µM [falling, single point] | – |
| CC(C)c1nnc(NC(=O)c2cc3cc(Br)ccc3oc2=O)s1 | 35.5 µM [rising, single point] | – |
